According to PMC8093233:
No constants are given. Whether binding was seen depends on the method and setting. Some results given as binding are weak or reduced against the parent protein; the word gives no strength.

Target: T1, interferon regulatory factor 3 (IRF3) (mouse (endogenous in L929)), P70671
T1 chain: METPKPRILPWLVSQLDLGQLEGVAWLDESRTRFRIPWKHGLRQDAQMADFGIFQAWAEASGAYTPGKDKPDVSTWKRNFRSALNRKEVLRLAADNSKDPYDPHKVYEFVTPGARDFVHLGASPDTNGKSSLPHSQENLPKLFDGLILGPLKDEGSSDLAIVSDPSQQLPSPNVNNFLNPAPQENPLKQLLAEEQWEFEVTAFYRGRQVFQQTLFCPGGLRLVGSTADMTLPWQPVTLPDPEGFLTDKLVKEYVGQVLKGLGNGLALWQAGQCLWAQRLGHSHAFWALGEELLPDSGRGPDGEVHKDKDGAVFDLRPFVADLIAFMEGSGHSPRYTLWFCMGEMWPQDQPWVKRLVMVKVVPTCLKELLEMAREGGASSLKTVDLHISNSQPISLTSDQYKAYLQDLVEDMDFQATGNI
Assay: native gel or EMSA; IRF3 dimerization assay: L929 cell extracts in native lysis buffer (50 mM Tris-HCl pH 8.0, 150 mM NaCl, 1% NP40), native PAGE without SDS, 0.2% deoxycholate in the cathode buffer, immunoblot for IRF3; cells transfected with miR-23a/b mimics or inhibitors and stimulated with HT-DNA (5 ug/ml) for the indicated times
Conditions: remark: other sources report otherwise

binding: binds
B1: interferon regulatory factor 3 (IRF3), P70671 1-419 (protein)
chain: T1 chain
